# Test results: article PMC5427921, “PRL3 phosphatase active site is required for binding the putative magnesium transporter CNNM3” (Scientific Reports, 2017)
# By UniProt entry, the sequences of proteins in these tests, tags left out. Where a name states a change or a piece, a line headed by the entry shows the natural chain unless it says otherwise. Chains listed by the source or under a name are the forms on record and can include a tag or linker. Residues count along the entry.
# UniProt Q8NE01, residues 309-452: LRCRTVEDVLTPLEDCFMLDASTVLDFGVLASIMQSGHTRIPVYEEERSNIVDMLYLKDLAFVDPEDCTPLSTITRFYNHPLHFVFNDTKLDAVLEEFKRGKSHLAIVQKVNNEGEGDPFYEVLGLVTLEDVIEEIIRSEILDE
# PRL3 R138E (O75365, form named): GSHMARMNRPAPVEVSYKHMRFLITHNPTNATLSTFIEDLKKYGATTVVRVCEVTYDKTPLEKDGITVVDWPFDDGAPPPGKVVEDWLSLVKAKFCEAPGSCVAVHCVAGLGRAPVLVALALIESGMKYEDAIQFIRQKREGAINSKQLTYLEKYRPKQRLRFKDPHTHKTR
# PRL3 A111S (O75365, form named): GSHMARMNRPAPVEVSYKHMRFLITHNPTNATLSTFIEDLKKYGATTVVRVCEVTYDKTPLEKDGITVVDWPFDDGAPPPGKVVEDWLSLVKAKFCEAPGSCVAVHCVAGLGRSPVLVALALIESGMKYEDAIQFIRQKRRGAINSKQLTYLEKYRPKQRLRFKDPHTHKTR
# PRL3 with the catalytic cysteine (Cys104) mutated to glutamic acid (O75365, form named): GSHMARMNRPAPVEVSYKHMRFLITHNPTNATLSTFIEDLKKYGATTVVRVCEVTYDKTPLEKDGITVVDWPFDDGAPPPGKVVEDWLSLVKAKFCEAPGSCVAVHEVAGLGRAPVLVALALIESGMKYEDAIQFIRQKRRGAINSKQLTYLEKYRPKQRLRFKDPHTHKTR
# PRL3 D72A (O75365, form named): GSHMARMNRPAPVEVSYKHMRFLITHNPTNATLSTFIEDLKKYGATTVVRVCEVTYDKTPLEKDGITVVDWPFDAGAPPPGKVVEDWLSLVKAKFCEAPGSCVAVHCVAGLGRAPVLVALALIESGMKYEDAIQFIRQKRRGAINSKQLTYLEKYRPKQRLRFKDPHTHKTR
# PRL3 with Arg138 mutated to alanine (O75365, form named): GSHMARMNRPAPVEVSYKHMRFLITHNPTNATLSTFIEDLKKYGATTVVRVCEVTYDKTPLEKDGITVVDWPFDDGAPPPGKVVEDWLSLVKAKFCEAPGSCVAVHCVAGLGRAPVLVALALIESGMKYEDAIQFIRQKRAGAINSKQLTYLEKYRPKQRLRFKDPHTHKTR
# PRL3 C104A (O75365, form named): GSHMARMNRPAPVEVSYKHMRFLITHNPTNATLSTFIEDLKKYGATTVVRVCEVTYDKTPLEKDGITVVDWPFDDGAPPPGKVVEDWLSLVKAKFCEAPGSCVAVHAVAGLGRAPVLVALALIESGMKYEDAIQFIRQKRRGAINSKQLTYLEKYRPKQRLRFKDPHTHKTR
# Results are given in words; binding and its absence hold for the method and conditions named. Some results given as binding are weak or reduced against the parent protein; the word gives no strength.
# Biological target: CNNM3 CBS-pair domain as a GST fusion (human) (UniProt Q8NE01)
# Test: ITC; syringe 160 μM PRL2 or PRL3, cell 16 μM CNNM3 CBS-pair domain as a GST fusion; 22 °C; 30 injections of 10 μl; fitted to a single set of identical sites; both purified
row,binding,Substance
1,binds weakly,PRL3 R138E (from UniProt O75365 1-169) (enzyme)
2,binds,PRL3 A111S (from UniProt O75365 1-169) (enzyme)
3,binds weakly,PRL3 with the catalytic cysteine (Cys104) mutated to glutamic acid (from UniProt O75365 1-169) (enzyme)
4,binds,PRL3 D72A (from UniProt O75365 1-169) (enzyme)
5,binds,PRL3 with Arg138 mutated to alanine (from UniProt O75365 1-169) (enzyme)

# Biological target: CBS-pair domain of human CNNM3 (GST tag removed) (human) (UniProt Q8NE01)
# Test: crystal structure; PRL3 C104A•CNNM3 CBS-pair domain; 1:1 mixture (1 mg/ml), hanging drops, 293 K; 20 mM HEPES pH 7.0, 100 mM NaCl, 5 mM TCEP over 0.064 M sodium citrate, 15% PEG5000 MME, 0.1 M HEPES pH 7.0; both purified
row,binding,Substance
1,binds,PRL3 C104A (from UniProt O75365 1-169) (enzyme)
